Reference: patent US6335190
For some assays here: A weaker result is weaker than the reference pair of the same experiment. Protein sequences can lack the tags named with them.

Columns and labels:
[1] = system: T1, BsmI methylase M1 (Bacillus stearothermophilus); test: activity in cells; details: M1 expressed from pBR322; plasmid only partially resistant to BsmI digestion; protein in cells; only the site is given
T1 sequence: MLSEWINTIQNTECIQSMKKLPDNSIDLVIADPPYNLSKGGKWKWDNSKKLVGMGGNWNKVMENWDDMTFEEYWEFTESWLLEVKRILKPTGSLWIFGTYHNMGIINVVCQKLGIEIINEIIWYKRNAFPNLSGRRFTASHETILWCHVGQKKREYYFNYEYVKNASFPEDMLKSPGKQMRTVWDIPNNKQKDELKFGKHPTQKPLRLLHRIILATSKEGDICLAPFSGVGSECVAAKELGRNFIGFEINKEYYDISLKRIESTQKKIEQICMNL

[2] = system: T2, BsmI methylase M2 (Bacillus stearothermophilus); test: activity in cells; details: M2 expressed from pBR322; isolate #9 resistant to BsmI; M1 and M2 together fully resistant; protein in cells; only the site is given
T2 sequence: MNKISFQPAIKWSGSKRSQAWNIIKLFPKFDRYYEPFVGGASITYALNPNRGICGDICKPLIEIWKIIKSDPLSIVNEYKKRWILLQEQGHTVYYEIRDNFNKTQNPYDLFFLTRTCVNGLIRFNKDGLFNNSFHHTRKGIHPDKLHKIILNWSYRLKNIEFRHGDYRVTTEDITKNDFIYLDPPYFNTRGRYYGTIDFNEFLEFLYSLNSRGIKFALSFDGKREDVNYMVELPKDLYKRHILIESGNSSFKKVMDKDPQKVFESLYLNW

GAATGC (double strand) [BsmI recognition site (in pBR322-derived expression plasmid)]
activity on this sequence [1]: less active | activity on this sequence [2]: active
